The other results are listed elsewhere or left out. These are further read-outs of the screen, such as a control signal, another cell line or another target. No call is given for them. The list favours compounds with an active or inconclusive main result. Potencies come from curve fits of mixed quality, noted in brackets.
Assay: qHTS Assay for Modulators of Lamin A Splicing
Details: HeLa LMNA splicing GFP/RFP minigene ratio, 48 h
Procedure, shortened: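 S3 HeLa stable clones carrying a lamin A-EGFP splicing minigene plus DsRed2 were seeded at 600 cells/well in Opti-MEM with 2% FBS, pin-dosed and incubated 48 h at 37°C. Acumen cytometry (488 nm) gave the GFP/RFP total-intensity ratio.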

[1] = measured here: GFP splicing reporter channel
[2] = measured here: RFP viability control channel

SMILES	AC50 [1]	AC50 [2]
CCS(=O)(=O)NCCc1csc(-c2ccccc2)n1	5.62 µM [rising, partial curve, poor fit]	12.6 µM [rising, partial curve, poor fit]
Cc1cc(N)n(-c2ccc(S(=O)(=O)c3ccc(C(C)C)cc3)cc2)n1	0.447 µM [rising, full curve, poor fit]	14.1 µM [rising, partial curve]
CCCCn1c(=N)n(CC(O)COc2cccc(C)c2)c2ccccc21 (centres undefined)	10 µM [rising, single point]	15.8 µM [rising, single point]
CCOC(=O)CN1N=C(/C=C/c2ccc(OC)cc2)CCC1=O	–	7.08 µM [falling, partial curve]
CCCCC(=O)NC1CC(=O)N(c2ccc3c(c2)OCCO3)C1 (centres undefined)	7.08 µM [falling, single point]	–
Cn1c(=O)c(C(=O)CSc2nncs2)c(N)n(Cc2ccccc2)c1=O	17.8 µM [rising, single point]	11.2 µM [rising, partial curve, poor fit]
COc1ccc(-c2csc(Cc3nnc(N4CCOCC4)n3-c3ccccc3)n2)cc1	–	11.2 µM [rising, partial curve, poor fit]
CCc1cc(OCCCSc2nc(C)cc(=O)[nH]2)ccc1Cl	–	8.91 µM [rising, partial curve]
Cc1ccc(NC(=O)COC(=O)/C(=C/c2cccs2)c2cccs2)cc1S(=O)(=O)N(C)C	–	14.1 µM [rising, partial curve]
CCc1nnc(NC(=O)c2cc(S(=O)(=O)N(CC)CC)ccc2Cl)s1	–	15.8 µM [rising, partial curve]
CCCc1cc(-c2[nH]ncc2-c2ccc(C(=O)OCC)o2)c(O)cc1O	–	20 µM [rising, partial curve, poor fit]
CC(C)CNC(=O)c1coc(=O)c(Br)c1	–	31.6 µM [rising, single point]
Cc1cc(F)ccc1NCc1ccc([N+](=O)[O-])cc1	15.8 µM [rising, single point]	11.2 µM [rising, partial curve, poor fit]
CCOc1ccccc1-c1cc(C(=O)N/N=C/c2ccc(O)c(OC)c2)c2ccccc2n1	14.1 µM [rising, single point]	–
COc1ccc(Cc2nc(-c3cccs3)no2)cc1OC	–	31.6 µM [rising, single point]
Cc1nn(Cc2ccccc2)c(Cl)c1/C=N/NC(=O)c1cccnc1	6.31 µM [rising, partial curve, poor fit]	0.158 µM [rising, full curve, poor fit]
CC1Cc2ccccc2N1C(=S)NC(=O)c1cccc(Br)c1 (centres undefined)	–	22.4 µM [rising, partial curve]
C#CC[N+](C)(C)CCCCCCCCCCCC	0.0501 µM [falling, partial curve, poor fit]	5.62 µM [rising, single point]
COc1ccc(C2=NOC(C(=O)NCc3ccc(F)cc3)C2)cc1 (centres undefined)	5.62 µM [falling, full curve]	6.31 µM [falling, full curve]
COc1ccc(N(C(=O)C(C)C)S(=O)(=O)c2cccs2)cc1	–	7.94 µM [rising, partial curve, poor fit]
Cc1ccc(-c2nc(N/N=C/c3ccccc3[N+](=O)[O-])c3ccccc3n2)cc1	1.78 µM [falling, partial curve]	8.91 µM [falling, single point]
Cc1cccc2cc(CN(Cc3cccs3)C(c3nnnn3C3CCCC3)C(C)C)c(=O)[nH]c12 (centres undefined)	–	3.55 µM [rising, partial curve, poor fit]
O=C(c1cccc(Cl)c1)N1CCN(CCc2ccncc2)CC1	31.6 µM [falling, single point]	31.6 µM [falling, single point]
CCC/C(O)=C1\C(=O)CC(C)(C)CC1=Nc1ccccc1OC	31.6 µM [rising, single point]	22.4 µM [rising, single point]
CN1CCN(/N=C/c2ccc(N(C)c3ccccc3)cc2)CC1	–	10 µM [rising, partial curve]
COc1cc(C(=O)NS(=O)(=O)c2ccccc2C)ccc1Cc1cn(C)c2ccc(NC(=O)OC3CCCC3)cc12	12.6 µM [rising, partial curve, poor fit]	–
COc1ccc(OC)c(C2C3=C(N=C4SCC(=O)N42)c2ccccc2CC3)c1 (centres undefined)	–	8.91 µM [rising, partial curve, poor fit]

Whole records, quoted from the list. Values in the order: AC50 [1]	AC50 [2]
`CC1Cc2ccccc2N1C(=S)NC(=O)c1cccc(Br)c1` (centres undefined) reads –	22.4 µM [rising, partial curve]
`COc1cc(C(=O)NS(=O)(=O)c2ccccc2C)ccc1Cc1cn(C)c2ccc(NC(=O)OC3CCCC3)cc12` reads 12.6 µM [rising, partial curve, poor fit]	–

Continuation:

SMILES	AC50 [1]	AC50 [2]
O=C(Nc1cccc(Cl)c1)c1cccc(Oc2ccc([N+](=O)[O-])cc2Cl)c1	–	35.5 µM [rising, single point]
O=C(NC(=S)Nc1ccccc1N1CCCCC1)c1cccs1	–	35.5 µM [rising, single point]
O=C(CC1c2ccccc2Oc2ccccc21)N1CCN(c2ccccn2)CC1	22.4 µM [falling, single point]	35.5 µM [falling, partial curve]
Cn1c(C(C(=O)NCC2CCCO2)N(CCc2ccccc2)C(=O)Cn2nnc3ccccc32)nc2ccccc21 (centres undefined)	3.55 µM [falling, partial curve]	–
COC(=O)C1=C(C)N(CCCC(=O)O)C(=O)NC1c1ccc(-c2ccccc2)cc1 (centres undefined)	–	8.91 µM [rising, partial curve, poor fit]
CCCNC1=CC(=O)CC(C)(C)C1	11.2 µM [rising, single point]	12.6 µM [rising, partial curve]
COCCNCC1C(Oc2ccc(Cl)cc2)C(=O)N1c1ccccc1C (centres undefined)	35.5 µM [falling, single point]	–
CCOC(=O)N1CCN(C(=O)CS(=O)(=O)c2cn(Cc3ccccc3Cl)c3ccccc23)CC1	5.62 µM [rising, single point]	5.62 µM [rising, single point]
COc1ccc(Cc2nn3c(-c4ccccc4Br)nnc3s2)cc1	–	11.2 µM [rising, single point]
COc1ccccc1C1SCCN1S(=O)(=O)c1cccc(C(F)(F)F)c1 (centres undefined)	–	12.6 µM [rising, single point]
S=C(NCc1ccncc1)Nc1ccc(Cl)cc1	15.8 µM [rising, single point]	22.4 µM [rising, single point]
O=C(c1ccc(Cl)c(S(=O)(=O)N2CCc3ccccc3C2)c1)N1CCN(c2ccccc2)CC1	14.1 µM [rising, single point]	25.1 µM [rising, single point]
O=C(Cn1c(=S)[nH]c2ccccc21)c1ccccc1	15.8 µM [rising, single point]	31.6 µM [rising, single point]
CCOC(=O)CCNC(=O)Nc1ccc2nc(C)n(Cc3ccc(Cl)cc3)c(=O)c2c1	11.2 µM [rising, partial curve, poor fit]	7.08 µM [rising, partial curve, poor fit]
COc1ccc(/C=N/NC(=O)CSc2nnc(CCCc3ccc(OC)c(C)c3)o2)cc1	14.1 µM [rising, single point]	22.4 µM [rising, single point]
c1coc(CNc2nc(-c3ccncc3)cs2)c1	–	25.1 µM [rising, single point]
Cc1cc(C2CCCCC2)n(O)c(=O)c1	3.98 µM [falling, partial curve]	7.94 µM [falling, partial curve]
Cc1cc(C)cc(-n2c(SCC(=O)NCc3ccco3)nc3ccccc3c2=O)c1	–	35.5 µM [rising, single point]
Cc1ccc(S(=O)(=O)CC(=O)Nc2sc3c(c2C#N)CCCC3)cc1	–	0.01 µM [falling, full curve, poor fit]
COc1cccc(-c2nnc(SCN3C(=O)c4ccccc4C3=O)n2C)c1	0.00631 µM [falling, full curve, poor fit]	–
COc1ccc(-c2cn3c(C)c(C(=O)Nc4cccc(C)n4)sc3n2)cc1	14.1 µM [rising, partial curve]	14.1 µM [rising, partial curve]
O=C(Nc1ccc(Cl)cc1)N1CCC(c2nc(-c3ccc(F)cc3)no2)CC1	–	12.6 µM [rising, single point]
Oc1ccccc1N=Cc1sc2ccccc2c1Cl	–	17.8 µM [rising, partial curve, poor fit]
COc1ccc2[nH]cc(CCNc3cc(-c4ccoc4)ncn3)c2c1	31.6 µM [rising, single point]	20 µM [rising, single point]
COC(=O)C1CCCCN1C(=O)CCc1nnc(CCc2c[nH]c3ccccc23)o1 (centres undefined)	0.112 µM [falling, full curve, poor fit]	0.2 µM [falling, full curve]
O=C(Nc1ccc(N2CCN(C(=O)c3ccccc3)CC2)cc1)c1ccc([N+](=O)[O-])o1	5.62 µM [falling, partial curve]	14.1 µM [falling, partial curve]
COc1cccc(Cn2c(CNC(=O)Cc3cccc(C)c3)nc3cccnc32)c1	35.5 µM [falling, partial curve]	1.58 µM [falling, full curve, poor fit]
